Data reported in the supplement of paper PMC8728848.
Some of the results follow.

What was measured:
[1] = biological target: Neu5Gc(a2-8)Neu5Gc(a2-6)Gal(b1-4)GlcNAc; assay: glycan array binding signal (z-score within array); higher = stronger binding; conditions: glycan notation: IUPAC condensed, linker removed
Outline: (§1)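 From the Consortium for Functional Glycomics database, 3228 arrays were curated, keeping only those whose protein sequence was available. Binding is given as a within-array Z-score averaged across arrays sharing a protein sequence and across linkers. Negative Z-scores can be read as non-binding.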

[2] = biological target: Neu5Gc(b2-6)Gal(b1-4)GlcNAc; assay: as above; conditions: glycan notation: IUPAC condensed, linker removed
Outline: as §1

B1: Nc3LysM-2 (protein)
chain: AHVLQARQSVSCDFATAANTGDTCASFAAAWGITEAAFAKLNPGVSCPGNLIAGSEYCVIGTVSTGAPTTTKAATTSTTPPTTTTTTKATTLSTSTTSVSPTGPSPQMPSITSTCNKFYQVQSGDGCWSIEQAQGVSASDFMAWNKAVDAQCDNLWLGYYVCVGVKGGSSPPPTTTTKPASSSAPTPQMPNTVSNCKKFHKVVSGDGCWAIEQAAGISASDFAKWNPYVDAACDNLWLGYYVCIGV
- glycan array binding signal (z-score) [1]: -0.347
- glycan array binding signal (z-score) [2]: -0.199
